Measurements published in PubChem BioAssay AID220 (DTP/NCI, 2004).
The list is a part of this screen's results and no random one: it gathers tests that were run many times, whatever their T/C, doses with no T/C, and many T/C values between a quarter and a half above the control. Further doses and runs are listed elsewhere. T/C is the treated group as % of the vehicle group. Schedule codes are those of the source, taken here to give the interval after Q, in days (D) or hours (H), and the number of doses after X. Some T/C values are followed by the survivors on the day toxicity was checked, most often the fifth; where none is given, no animal had died by that day. Some doses were run more than once; the results are listed from low to high. Some doses have a count of surviving animals in place of a T/C: the source files T/C as zero there, which appears to mark a toxic dose or a test without result, not a measured value. Counts of survivors are from the toxicity check (mostly the fifth day) where no day follows; animals may have died later.

Tested on: CD8F1 mice, subcutaneous mammary adenocarcinoma, T/C%
Assay: NCI In Vivo Anticancer Drug Screen. Data for tumor model Mammary Adenocarcinoma CD8F1 (subcutaneous) in CD8F1
Settings: higher T/C = larger tumour
Method in brief: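 Tumor-bearing mice, transplantable model; readout survival or tumor size; value = treated (T) / vehicle control (C).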

[1] = T/C endpoint: median tumor weight change, dose: 250.0 mg/kg/injection, schedule: Q01DX001 (ip), vehicle: saline with Tween-80
[2] = T/C endpoint: median tumor weight change, dose: 500.0 mg/kg/injection, schedule: Q01DX001 (ip), vehicle: saline with Tween-80
[3] = T/C endpoint: median tumor weight change, dose: 1000.0 mg/kg/injection, schedule: Q01DX001 (ip), vehicle: saline with Tween-80
[4] = T/C endpoint: median tumor weight change, dose: 1000.0 mg/kg/injection, schedule: Q01DX001 (ip), vehicle: Klucel (hydroxypropylcellulose) (HPC)

`CC[C@@H](C)[C@@H]1NC(=O)C(NC(=O)C(CC(C)C)N(C)C(=O)C2CCCN2C(=O)C(C)O)C(C)OC(=O)C(Cc2ccc(OC)cc2)N(C)C(=O)C2CCCN2C(=O)C(CC(C)C)NC(=O)C(C)C(=O)C(C(C)C)OC(=O)C[C@H]1O` (some centres undefined) was tested, and the T/C (T/C endpoint: median tumor weight change, dose: 80.0 micrograms/kg/injection, schedule: Q01DX001 (ip), vehicle: distilled water + alcohol, evaluated on day 31) was 131 % of control, the T/C (T/C endpoint: median tumor weight change, dose: 150.0 micrograms/kg/injection, schedule: Q01DX001 (ip), vehicle: distilled water + alcohol, evaluated on day 33) was 132 % of control and the T/C (T/C endpoint: median tumor weight change, dose: 160.0 micrograms/kg/injection, schedule: Q01DX001 (ip), vehicle: distilled water + alcohol, evaluated on day 31) was 139 % of control.

`CC[N](CC)[Ge]([CH2]C)[CH2]C.CC[N](CC)[Ge]([CH2]C)[CH2]C` was tested, and the survivor count (T/C endpoint: median tumor weight (est.), dose: 100.0 mg/kg/injection, schedule: Q07DX005 (ip), vehicle: saline) was 0 of 8 on day 30.

For `C/C=C/C=C1/OC(C)=C(C(C)=O)C1=O`, the survivor count [1] was 6 of 10 on day 28, the survivor count [2] was 0 of 10 on day 28 and 0 of 10 on day 29 and the survivor count [3] was 0 of 10 on day 28 and 0 of 10 on day 29. For the same compound, the survivor count (T/C endpoint: median tumor weight change, dose: 2000.0 mg/kg/injection, schedule: Q01DX001 (ip), vehicle: saline with Tween-80) was 0 of 10 on day 29 and 1 of 10 on day 28.

For `CC(C)CC(NC(=O)CF)C(=O)O` (centres undefined), the T/C (T/C endpoint: median tumor weight (est.), dose: 1.25 mg/kg/injection, schedule: Q07DX005 (ip), vehicle: saline, evaluated on day 30) was 141 % of control and the survivor count (T/C endpoint: median tumor weight (est.), dose: 20.0 mg/kg/injection, schedule: Q07DX005 (ip), vehicle: saline) was 3 of 10 on day 30.

In the case of `CCN(CC)c1ccc2cc(-c3nc4ccccc4n3C)c(=O)oc2c1`, the survivor count (T/C endpoint: median tumor weight (est.), dose: 50.0 mg/kg/injection, schedule: Q07DX005 (ip), vehicle: Klucel (hydroxypropylcellulose) (HPC)) is reported as 0 of 10 on day 30, the survivor count (T/C endpoint: median tumor weight (est.), dose: 100.0 mg/kg/injection, schedule: Q07DX005 (ip), vehicle: Klucel (hydroxypropylcellulose) (HPC)) is reported as 0 of 10 on day 30 and the survivor count (T/C endpoint: median tumor weight (est.), dose: 200.0 mg/kg/injection, schedule: Q07DX005 (ip), vehicle: Klucel (hydroxypropylcellulose) (HPC)) is reported as 0 of 10 on day 30. The survivor count (T/C endpoint: median tumor weight (est.), dose: 400.0 mg/kg/injection, schedule: Q07DX005 (ip), vehicle: Klucel (hydroxypropylcellulose) (HPC)) was 0 of 10 on day 30, the survivor count [4] was 0 of 10 on day 33 and the survivor count (T/C endpoint: median tumor weight change, dose: 2000.0 mg/kg/injection, schedule: Q01DX001 (ip), vehicle: Klucel (hydroxypropylcellulose) (HPC)) was 0 of 10 on day 33.

For `CN1C(=O)CC2(CCN(CCCC(=O)c3ccc(F)cc3)CC2)C1=O`, the T/C (T/C endpoint: median tumor weight (est.), dose: 25.0 mg/kg/injection, schedule: Q07DX005 (ip), vehicle: suspension in saline, evaluated on day 30) was 141 % of control.

For `C=C(C)[C@H]1CN[C@H](C(=O)O)[C@H]1CC(=O)O`, the survivor count (T/C endpoint: median tumor weight change, dose: 50.0 mg/kg/injection, schedule: Q01DX001 (ip), vehicle: saline) was 0 of 10 on day 38.

`O=[N+]([O-])O.O=[N+]([O-])O.[NH-]C1CCCCC1[NH-].[Pt+2]` (centres undefined) was tested, and the T/C (T/C endpoint: median tumor weight (est.), dose: 2.0 mg/kg/injection, schedule: Q07DX005 (ip), vehicle: dextrose, evaluated on day 30) was 133 % of control.

With `OC(CBr)C(O)C(O)C(O)CBr` (centres undefined) the T/C (T/C endpoint: median tumor weight (est.), dose: 100.0 mg/kg/injection, schedule: Q07DX005 (ip), vehicle: Klucel (hydroxypropylcellulose) (HPC), evaluated on day 30) was 29 [9 of 10 alive], 87 [9 of 10 alive on day 30], 100, 175 % of control, the T/C (T/C endpoint: median tumor weight (est.), dose: 200.0 mg/kg/injection, schedule: Q07DX005 (ip), vehicle: Klucel (hydroxypropylcellulose) (HPC), evaluated on day 30) was 27, 68 [9 of 10 alive on day 30], 84, 118 % of control and the T/C (T/C endpoint: median tumor weight (est.), dose: 400.0 mg/kg/injection, schedule: Q07DX005 (ip), vehicle: Klucel (hydroxypropylcellulose) (HPC), evaluated on day 30) was 75 [9 of 10 alive], 86, 91 % of control. The T/C (T/C endpoint: median tumor weight (est.), dose: 800.0 mg/kg/injection, schedule: Q07DX005 (ip), vehicle: Klucel (hydroxypropylcellulose) (HPC), evaluated on day 30) was 16 [9 of 10 alive], 44, 75 % of control [8 of 10 alive on day 30], the survivor count (T/C endpoint: median tumor weight (est.), dose: 800.0 mg/kg/injection, schedule: Q07DX005 (ip), vehicle: Klucel (hydroxypropylcellulose) (HPC)) was 6 of 10 and the survivor count (T/C endpoint: median tumor weight (est.), dose: 1200.0 mg/kg/injection, schedule: Q07DX005 (ip), vehicle: Klucel (hydroxypropylcellulose) (HPC)) was 1 of 10. For the same compound, the survivor count (T/C endpoint: median tumor weight change, dose: 1200.0 mg/kg/injection, schedule: Q01DX001 (ip), vehicle: Klucel (hydroxypropylcellulose) (HPC)) was 5 of 10 on day 28.

In the case of `CCN(CC)CCOCCO`, the survivor count (T/C endpoint: median tumor weight change, dose: 500.0 mg/kg/injection, schedule: Q01DX001 (ip), vehicle: saline) is reported as 0 of 10 on day 28, the survivor count (T/C endpoint: median tumor weight change, dose: 1000.0 mg/kg/injection, schedule: Q01DX001 (ip), vehicle: saline) is reported as 0 of 10 on day 28 and the survivor count (T/C endpoint: median tumor weight change, dose: 2000.0 mg/kg/injection, schedule: Q01DX001 (ip), vehicle: saline) is reported as 0 of 10 on day 28.

With `CC1/C=C/C=C/CC/C=C/C=C/C=C/C=C/C(OC2OC(C)C(O)C(N)C2O)CC2OC(CC(O)C(O)CCC(O)CC(O)CC(O)CC(=O)OC(C)C(C)C1O)CC(O)C2C(=O)O` (centres undefined) the survivor count (T/C endpoint: median tumor weight change, dose: 125.0 mg/kg/injection, schedule: Q01DX001 (ip), vehicle: saline with Tween-80) was 3 of 10 on day 29, the survivor count [1] was 3 of 10 on day 29 and the survivor count [2] was 1 of 10 on day 29.

In the case of `[Cl][Pt+2][Cl].[NH-]CC1(C[NH-])CCC1`, the survivor count (T/C endpoint: median tumor weight change, dose: 25.0 mg/kg/injection, schedule: Q01DX001 (ip), vehicle: suspension in saline) is reported as 4 of 10 on day 38, the survivor count (T/C endpoint: median tumor weight change, dose: 50.0 mg/kg/injection, schedule: Q01DX001 (ip), vehicle: suspension in saline) is reported as 0 of 10 on day 38 and the survivor count (T/C endpoint: median tumor weight change, dose: 100.0 mg/kg/injection, schedule: Q01DX001 (ip), vehicle: suspension in saline) is reported as 0 of 10 on day 38. For the same compound, the survivor count (T/C endpoint: median tumor weight change, dose: 200.0 mg/kg/injection, schedule: Q01DX001 (ip), vehicle: suspension in saline) was 0 of 10 on day 38.

For `O=C1[C@H]2CCC[C@H]2[C@H]2CCC[C@@H]12`, the survivor count [3] was 1 of 10 on day 28.

`Cc1ncc([N+](=O)[O-])n1CCSC(N)=O` was tested, and the T/C (T/C endpoint: median tumor weight (est.), dose: 50.0 mg/kg/injection, schedule: Q07DX005 (ip), vehicle: saline with Tween-80, evaluated on day 32) was 132 % of control [9 of 10 alive], the T/C (T/C endpoint: median tumor weight (est.), dose: 100.0 mg/kg/injection, schedule: Q07DX005 (ip), vehicle: saline with Tween-80, evaluated on day 30) was 139 % of control and the T/C (T/C endpoint: median tumor weight (est.), dose: 400.0 mg/kg/injection, schedule: Q07DX005 (ip), vehicle: saline with Tween-80, evaluated on day 32) was 128 % of control [9 of 10 alive].

For `O=c1ccc2ccccc2o1`, the survivor count (T/C endpoint: median tumor weight change, dose: 250.0 mg/kg/injection, schedule: Q01DX001 (ip), vehicle: Klucel (hydroxypropylcellulose) (HPC)) was 2 of 10 on day 36, the survivor count (T/C endpoint: median tumor weight change, dose: 500.0 mg/kg/injection, schedule: Q01DX001 (ip), vehicle: Klucel (hydroxypropylcellulose) (HPC)) was 0 of 10 on day 36 and the survivor count [4] was 1 of 10 on day 36.

In the case of `BrC1c2cccc3cccc(c23)C1Br` (centres undefined), the survivor count (T/C endpoint: median tumor weight (est.), dose: 400.0 mg/kg/injection, schedule: Q07DX005 (ip), vehicle: saline with Tween-80) is reported as 6 of 10 on day 30.
